Data reported in US8546531B2 (The General Hospital Corporation, priority 2008, dated 2013).

Tests used:
[1] = general procedure: Fmoc solid-phase peptide synthesis; Rink Amide MBHA; PyBOP, DIPEA; settings: whole synthesis
[2] = general procedure: Fmoc solid-phase peptide synthesis; Rink Amide MBHA resin; PyBOP, DIPEA; settings: for conjugation yield: conjugation step; for step yield: late stage modification step

Row | Substance | conjugation yield [2] [% yield] | step yield [2] [% yield] | also measured
1 | DTPA-Lys(FITC)-Lys(H)-βAla-Cys(H)—NH2 | – | – | isolated yield [1]: 87% yield
2 | DTPA-Lys(FITC)-Lys(PEG8-N3)-βAla-Cys(MAL^a) | 20 | – | –
3 | DTPA-Lys(FITC)-Lys(PEG8)-βAla-Cys | 11.6 | – | –
4 | DTPA-Lys(FITC)-Lys(Alkyne)-βAla-Cys | – | 34 | –
5 | DTPA-Lys(FITC)-Lys(Alkyne)-βAla-Cys(NHS^a) | – | 71 | –
